Laboratory results from the supplement of paper PMC8612539.
Values after ≈ are worked out from the molar mass of the structure shown. The source gives many values for each of these; only a part stands here.

Tested on: Escherichia coli
Assay: minimum inhibitory concentration (MIC)
Protocol: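 Broth microdilution MIC (Sensititre BOPO7F bovine plate, CLSI methods) of 19 antimicrobials against field isolates of P. multocida, M. haemolytica, H. somni (deep nasopharyngeal swabs) and E. coli, Enterococcus spp. (rectal swabs) from weaned dairy heifers. Incubation 16-24 h at 35 C. MIC is the lowest concentration preventing visible growth. Values with <= or > lie at the tested range limits. Trimethoprim-sulfamethoxazole is given as the trimethoprim component of a 1:19 mixture.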

CC1(C)S[C@@H]2[C@H](NC(=O)Cc3ccccc3)C(=O)N2[C@H]1C(=O)O [Penicillin]
Conditions | minimum inhibitory concentration [µg/mL]
isolate (source animal id): 1 | > 8
isolate (source animal id): 2 | > 8
isolate (source animal id): 3 | > 8
isolate (source animal id): 4 | > 8
isolate (source animal id): 5 | > 8
isolate (source animal id): 6 | > 8
isolate (source animal id): 7 | > 8
isolate (source animal id): 17 | > 8
isolate (source animal id): 18 | > 8
isolate (source animal id): 19 | > 8
isolate (source animal id): 20 | > 8
isolate (source animal id): 21 | > 8
isolate (source animal id): 22 | > 8
isolate (source animal id): 23 | > 8
isolate (source animal id): 24 | > 8
isolate (source animal id): 25 | > 8
isolate (source animal id): 26 | > 8
isolate (source animal id): 27 | > 8
isolate (source animal id): 28 | > 8
isolate (source animal id): 29 | > 8
isolate (source animal id): 30 | > 8
isolate (source animal id): 31 | > 8
isolate (source animal id): 32 | > 8
isolate (source animal id): 33 | > 8
isolate (source animal id): 34 | > 8
isolate (source animal id): 35 | > 8
isolate (source animal id): 36 | > 8
isolate (source animal id): 37 | > 8
isolate (source animal id): 38 | > 8
isolate (source animal id): 39 | > 8
isolate (source animal id): 40 | > 8
isolate (source animal id): 41 | > 8
isolate (source animal id): 42 | > 8
isolate (source animal id): 43 | > 8
isolate (source animal id): 44 | > 8
isolate (source animal id): 45 | > 8
isolate (source animal id): 46 | > 8
isolate (source animal id): 47 | > 8
isolate (source animal id): 48 | > 8
isolate (source animal id): 49 | > 8
isolate (source animal id): 50 | > 8
isolate (source animal id): 51 | > 8
isolate (source animal id): 52 | > 8
isolate (source animal id): 53 | > 8
isolate (source animal id): 54 | > 8
isolate (source animal id): 55 | > 8
isolate (source animal id): 56 | > 8
isolate (source animal id): 57 | > 8
isolate (source animal id): 58 | > 8
isolate (source animal id): 59 | > 8
isolate (source animal id): 60 | > 8
isolate (source animal id): 61 | 8 (≈ 23.9 µM)
isolate (source animal id): 62 | > 8
isolate (source animal id): 63 | > 8
isolate (source animal id): 64 | > 8
isolate (source animal id): 65 | > 8
isolate (source animal id): 66 | > 8
isolate (source animal id): 67 | > 8
isolate (source animal id): 68 | > 8
isolate (source animal id): 69 | > 8
isolate (source animal id): 70 | > 8
isolate (source animal id): 71 | > 8
isolate (source animal id): 72 | > 8
isolate (source animal id): 73 | > 8
isolate (source animal id): 74 | > 8
isolate (source animal id): 75 | > 8
isolate (source animal id): 76 | > 8
isolate (source animal id): 77 | > 8
isolate (source animal id): 78 | > 8
isolate (source animal id): 79 | > 8
isolate (source animal id): 80 | > 8
isolate (source animal id): 81 | > 8
isolate (source animal id): 82 | > 8
isolate (source animal id): 83 | > 8
isolate (source animal id): 84 | > 8
isolate (source animal id): 85 | > 8
isolate (source animal id): 86 | > 8
isolate (source animal id): 87 | > 8
isolate (source animal id): 88 | > 8
isolate (source animal id): 89 | > 8
isolate (source animal id): 90 | > 8
isolate (source animal id): 91 | > 8
isolate (source animal id): 92 | > 8
isolate (source animal id): 93 | > 8
isolate (source animal id): 94 | > 8
isolate (source animal id): 95 | > 8
isolate (source animal id): 96 | > 8
isolate (source animal id): 97 | > 8
isolate (source animal id): 189 | > 8
isolate (source animal id): 190 | > 8
isolate (source animal id): 191 | > 8
isolate (source animal id): 192 | > 8
isolate (source animal id): 193 | > 8
isolate (source animal id): 194 | > 8
isolate (source animal id): 195 | > 8
isolate (source animal id): 196 | 8 (≈ 23.9 µM)
isolate (source animal id): 197 | > 8
isolate (source animal id): 198 | > 8
isolate (source animal id): 199 | > 8
isolate (source animal id): 200 | > 8
isolate (source animal id): 201 | > 8
isolate (source animal id): 202 | > 8
isolate (source animal id): 203 | > 8
isolate (source animal id): 204 | > 8
isolate (source animal id): 205 | > 8
isolate (source animal id): 206 | > 8
isolate (source animal id): 207 | > 8
isolate (source animal id): 208 | > 8
isolate (source animal id): 209 | > 8
isolate (source animal id): 210 | > 8
isolate (source animal id): 211 | > 8
isolate (source animal id): 212 | > 8
isolate (source animal id): 213 | > 8
isolate (source animal id): 214 | > 8
isolate (source animal id): 215 | > 8
isolate (source animal id): 216 | > 8
isolate (source animal id): 217 | > 8
isolate (source animal id): 218 | > 8
isolate (source animal id): 219 | > 8
isolate (source animal id): 220 | > 8
isolate (source animal id): 221 | > 8
isolate (source animal id): 222 | > 8
isolate (source animal id): 223 | > 8
isolate (source animal id): 224 | > 8
isolate (source animal id): 225 | > 8
isolate (source animal id): 226 | > 8
isolate (source animal id): 227 | > 8
isolate (source animal id): 228 | > 8
isolate (source animal id): 229 | > 8
isolate (source animal id): 230 | > 8
isolate (source animal id): 231 | > 8
isolate (source animal id): 232 | > 8
isolate (source animal id): 233 | > 8
isolate (source animal id): 234 | > 8
isolate (source animal id): 235 | > 8
isolate (source animal id): 236 | > 8
isolate (source animal id): 237 | > 8
isolate (source animal id): 238 | > 8
isolate (source animal id): 239 | > 8
isolate (source animal id): 240 | > 8
isolate (source animal id): 241 | > 8
isolate (source animal id): 242 | > 8
isolate (source animal id): 243 | > 8
isolate (source animal id): 244 | > 8
isolate (source animal id): 245 | > 8
isolate (source animal id): 246 | > 8
isolate (source animal id): 247 | > 8
isolate (source animal id): 248 | > 8
isolate (source animal id): 249 | > 8
isolate (source animal id): 250 | > 8
isolate (source animal id): 251 | > 8
isolate (source animal id): 252 | > 8
isolate (source animal id): 253 | > 8
isolate (source animal id): 254 | > 8
isolate (source animal id): 255 | > 8
isolate (source animal id): 256 | > 8
isolate (source animal id): 257 | > 8
isolate (source animal id): 258 | > 8
isolate (source animal id): 259 | > 8
isolate (source animal id): 260 | > 8
isolate (source animal id): 261 | > 8
isolate (source animal id): 262 | > 8
isolate (source animal id): 263 | > 8
isolate (source animal id): 264 | > 8
isolate (source animal id): 265 | > 8
isolate (source animal id): 266 | > 8
isolate (source animal id): 267 | > 8
isolate (source animal id): 268 | > 8
isolate (source animal id): 269 | > 8
isolate (source animal id): 270 | > 8
isolate (source animal id): 271 | > 8
isolate (source animal id): 272 | > 8
isolate (source animal id): 273 | > 8
isolate (source animal id): 274 | > 8
isolate (source animal id): 275 | > 8
isolate (source animal id): 276 | > 8
isolate (source animal id): 277 | > 8
isolate (source animal id): 278 | > 8
isolate (source animal id): 279 | > 8
isolate (source animal id): 280 | > 8
isolate (source animal id): 281 | > 8
isolate (source animal id): 282 | > 8
isolate (source animal id): 283 | > 8
isolate (source animal id): 284 | > 8
isolate (source animal id): 285 | > 8
isolate (source animal id): 286 | > 8
isolate (source animal id): 287 | > 8
isolate (source animal id): 288 | > 8
isolate (source animal id): 289 | > 8
isolate (source animal id): 290 | > 8
isolate (source animal id): 291 | > 8
isolate (source animal id): 292 | > 8
isolate (source animal id): 293 | > 8
isolate (source animal id): 294 | > 8
isolate (source animal id): 295 | > 8
isolate (source animal id): 296 | > 8
isolate (source animal id): 297 | > 8
isolate (source animal id): 298 | > 8
isolate (source animal id): 299 | > 8
isolate (source animal id): 300 | > 8
isolate (source animal id): 301 | > 8
isolate (source animal id): 302 | > 8
isolate (source animal id): 303 | > 8
isolate (source animal id): 304 | > 8
isolate (source animal id): 305 | > 8
isolate (source animal id): 306 | > 8
isolate (source animal id): 307 | > 8
isolate (source animal id): 308 | > 8
isolate (source animal id): 309 | > 8
isolate (source animal id): 310 | > 8
isolate (source animal id): 311 | > 8
isolate (source animal id): 312 | > 8
isolate (source animal id): 313 | > 8
isolate (source animal id): 314 | > 8
isolate (source animal id): 315 | > 8
isolate (source animal id): 316 | > 8
isolate (source animal id): 317 | > 8
isolate (source animal id): 318 | > 8
isolate (source animal id): 319 | > 8
isolate (source animal id): 320 | > 8
isolate (source animal id): 321 | > 8
isolate (source animal id): 322 | > 8
isolate (source animal id): 323 | > 8
isolate (source animal id): 324 | > 8
isolate (source animal id): 325 | > 8
isolate (source animal id): 326 | > 8
isolate (source animal id): 327 | > 8
isolate (source animal id): 328 | > 8
isolate (source animal id): 329 | > 8
isolate (source animal id): 330 | > 8
isolate (source animal id): 331 | > 8
isolate (source animal id): 332 | > 8
isolate (source animal id): 333 | > 8
isolate (source animal id): 334 | > 8
isolate (source animal id): 335 | > 8
isolate (source animal id): 336 | > 8
isolate (source animal id): 337 | > 8
isolate (source animal id): 338 | > 8
isolate (source animal id): 339 | > 8
isolate (source animal id): 340 | > 8
isolate (source animal id): 341 | 8 (≈ 23.9 µM)
